{"source": "the supplement of paper PMC11098740", "note": "Where a name gives a salt, the structure may show the parent alone. The list shows a part of the results. Repeats are few or missing, and single values can be far off.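 Test system: a mixed pool of 41 HAP1 clones in which 61 cancer-associated proteins carry fluorescent tags inserted into introns, and each clone is identified from its image pattern. Read-outs are compared with DMSO-treated control wells. The BRD4 degrader dBET6 served as the positive control.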", "data": [{"target": "BRD4 (intron 10 mScarlet tag, HAP1) (UniProt O60885)", "assay": "BRD4 median nuclear fluorescence intensity change vs DMSO (log2 fold change); higher = more BRD4 protein", "settings": "6 h", "values": [{"smiles": "Cc1nnc(C(C)C)n1C1C[C@H]2CC[C@@H](C1)N2CC[C@H](NC(=O)C1CCC(F)(F)CC1)c1ccccc1", "note": "(stereo in doubt) [maraviroc] (10 µM)", "BRD4 median nuclear fluorescence intensity change (log2)": 0.0405}, {"smiles": "COc1ccccc1Oc1c(NS(=O)(=O)c2ccc(C(C)(C)C)cc2)nc(-c2ncccn2)nc1OCCO", "note": "[bosentan] (9.99938 µM)", "BRD4 median nuclear fluorescence intensity change (log2)": 0.148}, {"smiles": "NC[C@H]1CC[C@H](C(=O)O)CC1", "note": "[tranexamic acid] (10 µM)", "BRD4 median nuclear fluorescence intensity change (log2)": 0.07}, {"smiles": "NC12CC3CC(CC(C3)C1)C2", "note": "[amantadine] (10 µM)", "BRD4 median nuclear fluorescence intensity change (log2)": 0.00507}, {"smiles": "CN[C@@H]1C[C@H]2O[C@@](C)([C@@H]1OC)n1c3ccccc3c3c4c(c5c6ccccc6n2c5c31)C(=O)N[C@H]4O", "note": "[ucn-01 (7-hydroxystaurosporine)] (10 µM)", "BRD4 median nuclear fluorescence intensity change (log2)": -0.232}, {"smiles": "COC(=O)[C@H](c1ccccc1Cl)N1CCc2sccc2C1", "note": "[clopidogrel] (9.99986 µM)", "BRD4 median nuclear fluorescence intensity change (log2)": 0.0785}, {"smiles": "CNC(=O)c1ccccc1Sc1ccc2c(/C=C/c3ccccn3)n[nH]c2c1", "note": "[axitinib] (20 µM)", "BRD4 median nuclear fluorescence intensity change (log2)": -0.0357}, {"smiles": "CC[C@@]1(O)C(=O)OCc2c1cc1n(c2=O)Cc2cc3c(CN(C)C)c(O)ccc3nc2-1", "note": "[topotecan hydrochloride hydrate] (20 µM)", "BRD4 median nuclear fluorescence intensity change (log2)": -0.136}, {"smiles": "CN(C)C/C=C/C(=O)Nc1cc2c(Nc3ccc(F)c(Cl)c3)ncnc2cc1O[C@H]1CCOC1", "note": "[afatinib] (10 µM)", "BRD4 median nuclear fluorescence intensity change (log2)": 0.0558}, {"smiles": "COc1cc2nc(N3CCN(C(=O)C4CCCO4)CC3)nc(N)c2cc1OC", "note": "(centres undefined) [terazosin] (10 µM)", "BRD4 median nuclear fluorescence intensity change (log2)": 0.0133}, {"smiles": "CN(C)c1nc(N(C)C)nc(N(C)C)n1", "note": "[altretamine] (20 µM)", "BRD4 median nuclear fluorescence intensity change (log2)": -0.0669}, {"smiles": "O=C1CC2(CCCC2)CC(=O)N1CCCCN1CCN(c2ncccn2)CC1", "note": "[buspirone] (10 µM)", "BRD4 median nuclear fluorescence intensity change (log2)": 0.0855}, {"smiles": "CN(C)[C@@H]1C(O)=C(C(N)=O)C(=O)[C@@]2(O)C(O)=C3C(=O)c4c(O)cccc4[C@@](C)(O)[C@H]3C[C@@H]12", "note": "[tetracycline] (10 µM)", "BRD4 median nuclear fluorescence intensity change (log2)": 0.0167}, {"smiles": "CC(=O)S[C@@H]1CC2=CC(=O)CC[C@]2(C)[C@H]2CC[C@@]3(C)[C@@H](CC[C@@]34CCC(=O)O4)[C@H]12", "note": "[spironolactone] (10.00018646 µM)", "BRD4 median nuclear fluorescence intensity change (log2)": 0.0472}, {"smiles": "COc1cc2c(Oc3ccc4[nH]c(C)cc4c3F)ncnc2cc1OCCCN1CCCC1", "note": "[cediranib] (10 µM)", "BRD4 median nuclear fluorescence intensity change (log2)": 0.102}, {"smiles": "COc1cnc(NS(=O)(=O)c2ccc(N)cc2)nc1", "note": "[sulfameter] (10 µM)", "BRD4 median nuclear fluorescence intensity change (log2)": 0.0565}, {"smiles": "CC#CCC(C)[C@H](O)/C=C/[C@@H]1[C@H]2C/C(=C/CCCC(=O)O)C[C@H]2C[C@H]1O", "note": "(some centres undefined) [iloprost] (10 µM)", "BRD4 median nuclear fluorescence intensity change (log2)": -0.0154}, {"smiles": "COCCCC/C(=N\\OCCN)c1ccc(C(F)(F)F)cc1", "note": "[fluvoxamine] (9.99978 µM)", "BRD4 median nuclear fluorescence intensity change (log2)": 0.00516}, {"smiles": "CNCCCC12CCC(c3ccccc31)c1ccccc12", "note": "[maprotiline] (11.3144 µM)", "BRD4 median nuclear fluorescence intensity change (log2)": 0.116}, {"smiles": "Cc1c(OCC(F)(F)F)ccnc1C[S+]([O-])c1nc2ccccc2[nH]1", "note": "(centres undefined) [lansoprazole] (10 µM)", "BRD4 median nuclear fluorescence intensity change (log2)": 0.0697}, {"smiles": "CC[C@]1(O)C[C@@H]2CN(CCc3c([nH]c4ccccc34)[C@@](C(=O)OC)(c3cc4c(cc3OC)N(C)[C@H]3[C@@](O)(C(=O)OC)[C@H](OC(C)=O)[C@]5(CC)C=CCN6CC[C@]43[C@@H]65)C2)C1", "note": "[vinblastine sulfate] (0.73008 µM)", "BRD4 median nuclear fluorescence intensity change (log2)": 0.0684}, {"smiles": "CCCCN(CCCC)CCC(O)c1cc2c(Cl)cc(Cl)cc2c2cc(C(F)(F)F)ccc12", "note": "(centres undefined) [halofantrine] (10 µM)", "BRD4 median nuclear fluorescence intensity change (log2)": 0.0962}, {"smiles": "C[C@](N)(Cc1ccc(O)c(O)c1)C(=O)O", "note": "[methyldopa] (10 µM)", "BRD4 median nuclear fluorescence intensity change (log2)": 0.00989}, {"smiles": "CCC1(c2ccccc2)C(=O)NCNC1=O", "note": "[primidone] (10 µM)", "BRD4 median nuclear fluorescence intensity change (log2)": -0.023}, {"smiles": "O=C1Nc2ccc(Cl)cc2[C@@](C#CC2CC2)(C(F)(F)F)O1", "note": "[efavirenz] (10 µM)", "BRD4 median nuclear fluorescence intensity change (log2)": -0.0686}, {"smiles": "CC(=O)NCCCS(=O)(=O)O", "note": "[acamprosate] (22.0736 µM)", "BRD4 median nuclear fluorescence intensity change (log2)": 0.0556}, {"smiles": "OC[C@H]1O[C@@H](n2cnc3c2N=CNC[C@H]3O)C[C@@H]1O", "note": "[pentostatin] (14.69 µM)", "BRD4 median nuclear fluorescence intensity change (log2)": 0.0317}, {"smiles": "C#CCN(C)Cc1ccccc1", "note": "[pargyline] (10.0004 µM)", "BRD4 median nuclear fluorescence intensity change (log2)": 0.0792}, {"smiles": "COc1cc(C(=O)NS(=O)(=O)c2ccccc2C)ccc1Cc1cn(C)c2ccc(NC(=O)OC3CCCC3)cc12", "note": "[zafirlukast] (10.0009 µM)", "BRD4 median nuclear fluorescence intensity change (log2)": 0.0638}, {"smiles": "CS(=O)(=O)CCNCc1ccc(-c2ccc3ncnc(Nc4ccc(OCc5cccc(F)c5)c(Cl)c4)c3c2)o1", "note": "[lapatinib] (20 µM)", "BRD4 median nuclear fluorescence intensity change (log2)": 0.0502}, {"smiles": "CO[C@H]1C[C@@H]2CC[C@@H](C)[C@@](O)(O2)C(=O)C(=O)N2CCCC[C@H]2C(=O)O[C@H]([C@H](C)C[C@@H]2CC[C@@H](O)[C@H](OC)C2)CC(=O)[C@H](C)/C=C(\\C)[C@@H](O)[C@@H](OC)C(=O)[C@H](C)C[C@H](C)/C=C/C=C/C=C/1C", "note": "[rapamycin] (10 µM)", "BRD4 median nuclear fluorescence intensity change (log2)": 0.101}, {"smiles": "CC1=C(/C=C/C(C)=C/C=C/C(C)=C/C(=O)O)C(C)(C)CCC1", "note": "[tretinoin] (20 µM)", "BRD4 median nuclear fluorescence intensity change (log2)": -0.0242}, {"smiles": "COc1cc(C(=O)NCc2ccc(OCCN(C)C)cc2)cc(OC)c1OC", "note": "[trimethobenzamide] (10 µM)", "BRD4 median nuclear fluorescence intensity change (log2)": 0.084}, {"smiles": "Cn1nnc2c(C(N)=O)ncn2c1=O", "note": "[temozolomide] (20 µM)", "BRD4 median nuclear fluorescence intensity change (log2)": -0.00164}, {"smiles": "COc1ccc2c3c1O[C@H]1C[C@@H](O)C=C[C@@]31CCN(C)C2", "note": "[galantamine] (10 µM)", "BRD4 median nuclear fluorescence intensity change (log2)": 0.0662}, {"smiles": "CN(C)CC[C@@H](c1ccc(Cl)cc1)c1ccccn1", "note": "[dexchlorpheniramine] (10.00011514 µM)", "BRD4 median nuclear fluorescence intensity change (log2)": 0.0657}, {"smiles": "O=c1[nH]cc(F)c(=O)[nH]1", "note": "[5-fluorouracil] (20 µM)", "BRD4 median nuclear fluorescence intensity change (log2)": -0.0207}, {"smiles": "NCCNc1ccc(NCCN)c2c1C(=O)c1ccncc1C2=O", "note": "[pixantrone] (10 µM)", "BRD4 median nuclear fluorescence intensity change (log2)": 0.0327}, {"smiles": "Clc1ccc2c(c1)C(N1CCNCC1)=Nc1ccccc1O2", "note": "[amoxapine] (10.00000745 µM)", "BRD4 median nuclear fluorescence intensity change (log2)": 0.147}]}]}
